PubChem BioAssay AID1159578 | Peter MacCallum Cancer Centre – 2015
Assay: 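Genome-wide hunt for genes controlling movement of lymphatic endothelial cells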 (primary screen). System: human lymphatic endothelial cells. Knock-down reagent: siRNA pool against human genes, 40 nM. Time to read-out: 48 h after transfection. Measured: 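Cells stained with dye and imaged after a scratch; covered wound area and nuclei counted, duplicates averaged, migration set against mock wells and turned into a robust z-score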. Direction: migration robust z-score: higher = faster migration into the scratch; nuclei per well: higher = more cells in the well. Active means: 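Migration changed when robust z exceeds 2 or falls below -2 and mean nuclei number is at least 3300; otherwise not called changed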. Meaning of the calls: active = migration changed; inactive = no migration change, or too few cells.
Here is an unselected part of about 18,000 reagents tested. About 1,030 of them (5.7%) were called active. 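Inactive calls also include pools with fewer than 3300 nuclei, whose migration was not assessed.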 The raw values are shown without normalisation. Entries without a mark were called inactive. Further read-outs or replicates are left out here. No sequences are given here.

For CHD3 (GeneID 1107), what does the deposit list?
migration robust z-score: 0.03; nuclei per well, duplicate mean: 5368

For TRAPPC6B (GeneID 122553), how do the results read?
migration robust z-score: 1.32; nuclei per well, duplicate mean: 6476

For CNNM1 (GeneID 26507), what was measured?
migration robust z-score: -0.62; nuclei per well, duplicate mean: 6154

Which result is listed for CHP1 (GeneID 11261)?
migration robust z-score: -0.52; nuclei per well, duplicate mean: 5822

With TRAPPC13 (GeneID 80006), how do the results read?
migration robust z-score: -0.32; nuclei per well, duplicate mean: 6300

How did the screen score KNTC1 (GeneID 9735)?
migration robust z-score: -0.74; nuclei per well, duplicate mean: 5569

For RBMY1F (GeneID 159163), how do the results read?
migration robust z-score: -0.82; nuclei per well, duplicate mean: 5058

For CLP1 (GeneID 10978), what does the deposit list?
migration robust z-score: -1.69; nuclei per well, duplicate mean: 4994

With ZNF132 (GeneID 7691), what does the deposit list?
migration robust z-score: -2.36 (active); nuclei per well, duplicate mean: 3810

With NUDCD1 (GeneID 84955), how do the results read?
migration robust z-score: 0.76; nuclei per well, duplicate mean: 6650

Which result is listed for MITD1 (GeneID 129531)?
migration robust z-score: 2.58 (active); nuclei per well, duplicate mean: 5671

With IL10 (GeneID 3586), what was measured?
migration robust z-score: 0.34; nuclei per well, duplicate mean: 5066

With CBLN3 (GeneID 643866), how do the results read?
migration robust z-score: -0.14; nuclei per well, duplicate mean: 6656

What did the screen give for FAF2 (GeneID 23197)?
migration robust z-score: 0.72; nuclei per well, duplicate mean: 6772

With PTTG2 (GeneID 10744), how do the results read?
migration robust z-score: 0.84; nuclei per well, duplicate mean: 6850

For SPHAR (retired record) (GeneID 10638), how do the results read?
migration robust z-score: 1; nuclei per well, duplicate mean: 5140

For ZNF773 (GeneID 374928), what was measured?
migration robust z-score: 1.73; nuclei per well, duplicate mean: 7318

For GNB2 (GeneID 2783), what was measured?
migration robust z-score: 0.12; nuclei per well, duplicate mean: 6049

For POP7 (GeneID 10248), what was measured?
migration robust z-score: -2.29 (active); nuclei per well, duplicate mean: 4223

What is on record for APP (GeneID 351)?
migration robust z-score: 1.53; nuclei per well, duplicate mean: 6704

With PLD3 (GeneID 23646), what was measured?
migration robust z-score: 0.57; nuclei per well, duplicate mean: 4580

For LMBRD2 (GeneID 92255), what does the deposit list?
migration robust z-score: 1.44; nuclei per well, duplicate mean: 5892

For FAM220A (GeneID 84792), what was measured?
migration robust z-score: 0.68; nuclei per well, duplicate mean: 5888

With REXO1 (GeneID 57455), what was measured?
migration robust z-score: 0.28; nuclei per well, duplicate mean: 5421

With DNAH5 (GeneID 1767), what does the deposit list?
migration robust z-score: -0.83; nuclei per well, duplicate mean: 6326

How did the screen score PODN (GeneID 127435)?
migration robust z-score: -0.34; nuclei per well, duplicate mean: 5210

With KCNT1 (GeneID 57582), how do the results read?
migration robust z-score: -1.09; nuclei per well, duplicate mean: 4687

Part of the list above, set out differently.
{"target gene":"CBLN3 (GeneID 643866)","migration robust z-score":-0.14,"nuclei per well, duplicate mean":6656}
{"target gene":"FAF2 (GeneID 23197)","migration robust z-score":0.72,"nuclei per well, duplicate mean":6772}
